Data published in publication PMC9615392.
These are yes or no findings as the source states them, for the method shown. Binding seen in cells or lysates may run through a third protein. A yes stands for co-enrichment or nearness to the bait. Other partners may have been found.

Protein sequences, listed by entry. Tags and fused reporters are not part of them.
UniProt Q8IY33: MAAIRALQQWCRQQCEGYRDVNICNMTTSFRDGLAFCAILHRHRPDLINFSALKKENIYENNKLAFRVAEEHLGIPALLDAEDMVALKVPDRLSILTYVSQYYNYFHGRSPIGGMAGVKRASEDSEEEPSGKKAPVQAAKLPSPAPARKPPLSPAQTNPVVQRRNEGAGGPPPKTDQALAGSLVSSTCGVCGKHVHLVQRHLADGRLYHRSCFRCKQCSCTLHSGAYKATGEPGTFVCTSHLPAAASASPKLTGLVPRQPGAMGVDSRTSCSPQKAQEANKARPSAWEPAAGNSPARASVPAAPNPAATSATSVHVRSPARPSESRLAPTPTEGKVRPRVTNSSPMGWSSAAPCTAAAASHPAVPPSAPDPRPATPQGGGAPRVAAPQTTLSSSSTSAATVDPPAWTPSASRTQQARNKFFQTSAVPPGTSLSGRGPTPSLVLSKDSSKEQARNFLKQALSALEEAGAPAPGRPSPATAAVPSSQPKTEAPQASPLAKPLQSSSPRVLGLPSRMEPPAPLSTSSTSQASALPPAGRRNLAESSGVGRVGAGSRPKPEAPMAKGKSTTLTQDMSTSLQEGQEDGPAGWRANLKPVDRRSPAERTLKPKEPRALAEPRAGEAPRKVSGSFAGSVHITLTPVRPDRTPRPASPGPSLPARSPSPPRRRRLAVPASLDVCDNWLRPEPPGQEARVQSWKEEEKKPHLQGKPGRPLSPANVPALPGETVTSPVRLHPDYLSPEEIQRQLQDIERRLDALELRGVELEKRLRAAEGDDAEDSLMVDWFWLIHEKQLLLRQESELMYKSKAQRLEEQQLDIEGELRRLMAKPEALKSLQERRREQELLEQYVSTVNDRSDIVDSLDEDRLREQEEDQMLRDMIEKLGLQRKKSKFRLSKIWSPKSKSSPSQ
UniProt P19474: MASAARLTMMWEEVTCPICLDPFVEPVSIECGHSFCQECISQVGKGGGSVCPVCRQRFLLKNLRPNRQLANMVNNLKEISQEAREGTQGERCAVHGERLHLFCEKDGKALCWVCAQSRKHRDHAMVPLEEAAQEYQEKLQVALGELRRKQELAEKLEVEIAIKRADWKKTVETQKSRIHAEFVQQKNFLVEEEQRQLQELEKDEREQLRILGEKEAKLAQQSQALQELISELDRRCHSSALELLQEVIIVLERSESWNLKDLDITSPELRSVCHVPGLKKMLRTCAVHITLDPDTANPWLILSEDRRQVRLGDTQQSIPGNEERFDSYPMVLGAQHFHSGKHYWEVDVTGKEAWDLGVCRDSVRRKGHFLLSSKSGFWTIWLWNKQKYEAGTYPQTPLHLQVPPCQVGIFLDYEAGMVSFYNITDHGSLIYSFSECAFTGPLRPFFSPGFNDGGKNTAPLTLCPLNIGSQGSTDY

Target: Molecule interacting with CasL-like protein 2 (MICALL2), endogenous (human (endogenous in HCT8)) (UniProt Q8IY33)
Experiment: affinity purification with mass spectrometry; CRC cell protein extracts incubated with MICALL2 antibody and protein A/G agarose beads; IgG as control; bands specific to MICALL2 excised from the silver-stained gel, LC-MS/MS

binding: binds
Substance: Tripartite motif-containing protein 21 (TRIM21), endogenous (from UniProt P19474 1-475)
